Measured values taken from ChEMBL document CHEMBL3102773, “The synthesis and comparative receptor binding affinities of novel, isomeric pyridoindolobenzazepine scaffolds” (Bioorg Med Chem Lett, 2014).

Protein sequences, listed by entry. Tags and fused reporters are not part of them.
UniProt P41595, whole entry: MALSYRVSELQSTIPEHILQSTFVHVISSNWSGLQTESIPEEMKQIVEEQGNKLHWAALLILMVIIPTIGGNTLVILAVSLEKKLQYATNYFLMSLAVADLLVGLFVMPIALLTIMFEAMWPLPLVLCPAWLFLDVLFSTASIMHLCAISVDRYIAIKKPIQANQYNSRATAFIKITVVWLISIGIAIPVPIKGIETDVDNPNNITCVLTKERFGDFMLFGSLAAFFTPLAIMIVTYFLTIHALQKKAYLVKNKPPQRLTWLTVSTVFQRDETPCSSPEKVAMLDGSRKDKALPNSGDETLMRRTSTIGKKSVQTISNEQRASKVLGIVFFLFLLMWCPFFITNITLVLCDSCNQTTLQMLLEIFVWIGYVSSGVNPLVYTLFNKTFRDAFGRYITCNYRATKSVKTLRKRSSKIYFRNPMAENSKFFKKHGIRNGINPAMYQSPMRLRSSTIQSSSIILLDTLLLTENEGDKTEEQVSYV

Molecular target: 5-hydroxytryptamine receptor 2B (Homo sapiens, UniProt P41595)

## CC[C@@H](CO)NC(=O)[C@@H]1C=C2c3cccc4c3c(cn4C)C[C@H]2N(C)C1 [METHYSERGIDE]
  Ki: 7.6 nM
